Each structure is given as a SMILES string. Some of the results follow. Repeats are few or missing, and single values can be far off.

The test concerns Saccharomyces cerevisiae BY4743. Briefly: growth (OD600) with compound + IPBC relative to untreated control; higher = less growth inhibition. Conditions: compound concentration: 133 uM; IPBC concentration: 0.5 ug/ml; 20 h. Here is the method:
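NMCCC compounds (133 uM) combined with IPBC (0.5 ug/ml) against Saccharomyces cerevisiae BY4743 in YPD, 96-well plates. Growth was read as OD600 at 20 h and expressed as % of the untreated control. Single pass.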
As to `COC1=CC=CC=C1C(=O)N\C2=C\N=C3\S\C=C/N3C2=O` + CCCCNC(=O)OCC#CI [3-iodo-2-propynyl butylcarbamate (IPBC)], the growth came out at 97.6%.
For `COC(=O)c1ccc(CSc2nc(N)c3ccsc3n2)cc1` + CCCCNC(=O)OCC#CI [3-iodo-2-propynyl butylcarbamate (IPBC)] the value was 94.5%; for `COc1ccccc1/N=C1\C(Cl)=C(O)OC1OC(=O)c1ccccc1Br` (stereo not drawn) + CCCCNC(=O)OCC#CI [3-iodo-2-propynyl butylcarbamate (IPBC)], 100%.
For the compound `COC1=CC=C(NC(=O)\C2=C(/C)C(=O)OC23CCC(C)CC3)C=C1Cl` (stereo not drawn) + CCCCNC(=O)OCC#CI [3-iodo-2-propynyl butylcarbamate (IPBC)], the growth was 101%.
The result for `COc1ccc(CCNC(=O)c2ccc(Cn3cc(Cl)cn3)cc2)cc1` + CCCCNC(=O)OCC#CI [3-iodo-2-propynyl butylcarbamate (IPBC)] reads 85.3%; that for `Cc1nc(C)c(C(=O)OCC(=O)Nc2sc3c(c2C(N)=O)CCCC3)s1` + CCCCNC(=O)OCC#CI [3-iodo-2-propynyl butylcarbamate (IPBC)], 100%; that for `COc1ccccc1CNc1sc(S(C)(=O)=O)nc1S(=O)(=O)c1ccc(C)cc1` + CCCCNC(=O)OCC#CI [3-iodo-2-propynyl butylcarbamate (IPBC)], 99.4%.
The result for `CC(C)CCC(C)NC(=O)CSc1nnc(-c2ccc(F)c(F)c2)c(O)n1` (stereo not drawn) + CCCCNC(=O)OCC#CI [3-iodo-2-propynyl butylcarbamate (IPBC)] reads 82.3%.

The values are drawn from the supplement of paper PMC8007513.
